Values from PubChem BioAssay AID1053208 (Peter MacCallum Cancer Centre, 2014).
Here is an unselected part of about 17,000 reagents tested. Over the whole deposit, 788 (4.7%) are marked active. 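Calls rest on z-score classes alone; an extra cut-off of viability at most 70% of control was not applied to them.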 Unmarked entries are inactive. The numbers tell different reagents against one gene apart. Not all columns of the deposit are shown. Reagent sequences are not shown.

- Test: 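Genes whose silencing cuts survival of bone tumour cells only with doxorubicin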 (primary screen)
- Cells: mouse osteosarcoma cells, early-passage culture from an engineered mouse model of fibroblastic bone tumour
- Reagent: siRNA pool against mouse genes, 40 nM
- Duration: about 120 h (48 h before drug, then 72 h with drug)
- Challenge: doxorubicin 100 nM for 72 h, roughly 30-40% inhibitory dose
- Detection: 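Viability read as ATP luminescence after 72 h of 100 nM doxorubicin or none, duplicate wells averaged, scaled to non-targeting siRNA, then expressed as robust z-scores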
- Direction: viability z-score with doxorubicin: higher = more viable cells under doxorubicin; viability z-score without drug: higher = more viable cells with knock-down alone
- Hit rule: 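a pool counts as active when its viability z-score with doxorubicin is -2 or below and its z-score without drug lies between -2 and 2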

gene knocked down | reagent | combined z-score class | viability z-score with doxorubicin | viability z-score without drug
Fbxw16 (F-box and WD-40 domain protein 16) | 1 | no change with or without drug | 0.11 | 0.51
Jazf1 (JAZF zinc finger 1) | 1 | no change with or without drug | -0.56 | 0.84
Ltap1 (lipid transport auxiliary protein 1) | 1 | no change with or without drug | -0.67 | 1.35
Lcn10 (lipocalin 10) | 1 | no change with or without drug | -0.11 | 0.17
Rhox4e (reproductive homeobox 4E) | 1 | no change with or without drug | -1.12 | -0.17
Mettl18 (methyltransferase like 18) | 1 | no change with or without drug | 0.67 | -0.17
Prkn (parkin RBR E3 ubiquitin protein ligase) | 1 | no change with or without drug | 0.45 | -0.17
Oplah (5-oxoprolinase (ATP-hydrolysing)) | 1 | no change with or without drug | 0.34 | 1.85
Lhfpl4 (lipoma HMGIC fusion partner-like protein 4) | 1 | no change with or without drug | 0.22 | 0.34
Hsdl1 (hydroxysteroid dehydrogenase like 1) | 1 | no change with or without drug | 0.79 | -0.17
Sgpl1 (sphingosine phosphate lyase 1) | 1 | no change with or without drug | 0 | 0.17
Or2n1c (olfactory receptor family 2 subfamily N member 1C) | 1 | low cell count without drug only | -1.35 | -2.19
C1qc (complement component 1, q subcomponent, C chain) | 1 | no change with or without drug | -0.45 | -1.52
Dap (death-associated protein) | 1 | no change with or without drug | -1.69 | 0.34
Cd96 (CD96 antigen) | 1 | no change with or without drug | 0.45 | 0.84
Or5b113 (olfactory receptor family 5 subfamily B member 113) | 1 | no change with or without drug | -0.45 | 0.51
Taar9 (trace amine-associated receptor 9) | 1 | no change with or without drug | -1.35 | -0.51
Slc29a3 | 1 | no change with or without drug | 1.12 | 0.34
Acss1 (acyl-CoA synthetase short-chain family member 1) | 1 | no change with or without drug | 0.45 | -0.17
Irak2 (interleukin-1 receptor-associated kinase 2) | 1 | no change with or without drug | 0.34 | -0.84
Tra2a (transformer 2 alpha) | 1 | no change with or without drug | 1.35 | -0.17
Tra2a (transformer 2 alpha) | 2 | no change with or without drug | -0.67 | 0
1700013G24Rik (RIKEN cDNA 1700013G24 gene) | 1 | high cell count without drug only | 1.57 | 2.53
Rmi1 (RecQ mediated genome instability 1) | 1 | no change with or without drug | -0.9 | -0.51
Pgm1 (phosphoglucomutase 1) | 1 | no change with or without drug | -1.35 | 0.17
Dhps (deoxyhypusine synthase) | 1 | no change with or without drug | 0.34 | -0.17
Pabir1 | 1 | no change with or without drug | -1.24 | -0.51
Ptma (prothymosin alpha) | 1 | no change with or without drug | 1.8 | 1.85
Fam110c (family with sequence similarity 110, member C) | 1 | no change with or without drug | 0.22 | 0.17
D630023F18Rik (RIKEN cDNA D630023F18 gene) | 1 | no change with or without drug | 0.22 | 1.85
Brca1 (breast cancer 1, early onset) | 1 | low cell count with and without drug | -2.14 | -2.19
Tmem120a (transmembrane protein 120A) | 1 | no change with or without drug | -0.22 | -1.18
Dmkn (dermokine) | 1 | no change with or without drug | 0 | 0.17
Zup1 (zinc finger containing ubiquitin peptidase 1) | 1 | no change with or without drug | 1.35 | 0.67

Quoted from the entries so far for reference:
gene knocked down | reagent | combined z-score class | viability z-score with doxorubicin | viability z-score without drug
1700013G24Rik (RIKEN cDNA 1700013G24 gene) | 1 | high cell count without drug only | 1.57 | 2.53
Rmi1 (RecQ mediated genome instability 1) | 1 | no change with or without drug | -0.9 | -0.51
Pgm1 (phosphoglucomutase 1) | 1 | no change with or without drug | -1.35 | 0.17
